# Data taken from the supplement of paper PMC8728848.
# The list shows a part of the results.
# B1: SUN4P (Saccharomyces cerevisiae), P53616 (protein)
# chain: MGSSHHHHHHSSGLVPRGSHNGSIYGDLADFSGPYEKFEDGTIPCGQFPSGQGVIPISWLDEGGWSGVENTDTSTGGSCKEGSYCSYACQPGMSKTQWPSDQPSDGRSIGGLLCKDGYLYRSNTDTDYLCEWGVDAAYVVSELSNDVAICLTDYPGTENMVIPTYVQAGDSLPLTVVDQDTYYTWQGLKTSAQYYVNNAGISVEDACVWGSSSSGVGNWAPLNFGAGSSDGVAYLSLIPNPNNGNALNFNVKIVAADDSSTVNGECIYENGSFSGGSDGCTVSVTAGKAKFVLYN
# Columns and labels:
# Experiment in all cases: glycan array binding signal (z-score within array); higher = stronger binding
# Details in all cases: glycan notation: IUPAC condensed, linker removed; mutation: R276L
# [1] = target: Neu5Ac(a2-6)Gal(b1-4)GlcNAc(b1-2)Man(a1-3)[Man(a1-6)]Man(b1-4)GlcNAc(b1-4)GlcNAc
# How it was run: (§1)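 Arrays were curated from the Consortium for Functional Glycomics database, 3228 in total, and kept only where the protein sequence was available. Binding is expressed as a within-array Z-score. This score was averaged across arrays of the same protein sequence at different concentrations or buffers and across linkers, and negative values can be read as non-binding.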
# [2] = target: Neu5Ac(a2-6)Gal(b1-4)GlcNAc(b1-2)Man(a1-3)[Neu5Ac(a2-3)Gal(b1-4)GlcNAc(b1-2)Man(a1-6)]Man(b1-4)GlcNAc(b1-4)GlcNAc
# How it was run: as §1
# [3] = target: Neu5Ac(a2-6)Gal(b1-4)GlcNAc(b1-2)Man(a1-3)[Neu5Ac(a2-6)Gal(b1-4)GlcNAc(b1-2)Man(a1-6)]Man(b1-4)GlcNAc(b1-4)GlcNAc
# How it was run: as §1
# [4] = target: Neu5Ac(a2-6)Gal(b1-4)GlcNAc(b1-2)Man(a1-3)[Neu5Ac(a2-6)Gal(b1-4)GlcNAc(b1-2)Man(a1-6)]Man(b1-4)GlcNAc(b1-4)[Fuc(a1-6)]GlcNAc
# How it was run: as §1
# [5] = target: Neu5Ac(a2-6)Gal(b1-4)GlcNAc(b1-2)Man(a1-6)Man(b1-4)GlcNAc(b1-4)GlcNAc
# How it was run: as §1
# [6] = target: Neu5Ac(a2-6)Gal(b1-4)GlcNAc(b1-2)Man(a1-6)[Gal(b1-4)GlcNAc(b1-2)Man(a1-3)]Man(b1-4)GlcNAc(b1-4)GlcNAc
# How it was run: as §1
# [7] = target: Neu5Ac(a2-6)Gal(b1-4)GlcNAc(b1-2)Man(a1-6)[GlcNAc(b1-2)Man(a1-3)]Man(b1-4)GlcNAc(b1-4)GlcNAc
# How it was run: as §1
# [8] = target: Neu5Ac(a2-6)Gal(b1-4)GlcNAc(b1-2)Man(a1-6)[Man(a1-3)]Man(b1-4)GlcNAc(b1-4)GlcNAc
# How it was run: as §1
# [9] = target: Neu5Ac(a2-6)Gal(b1-4)GlcNAc(b1-2)[Neu5Ac(a2-6)Gal(b1-4)GlcNAc(b1-4)]Man(a1-3)[GlcNAc(b1-4)][Neu5Ac(a2-6)Gal(b1-4)GlcNAc(b1-2)[Neu5Ac(a2-6)Gal(b1-4)GlcNAc(b1-6)]Man(a1-6)]Man(b1-4)GlcNAc(b1-4)GlcNAc
# How it was run: as §1
# [10] = target: Neu5Ac(a2-6)Gal(b1-4)GlcNAc(b1-2)[Neu5Ac(a2-6)Gal(b1-4)GlcNAc(b1-4)]Man(a1-3)[GlcNAc(b1-4)][Neu5Ac(a2-6)Gal(b1-4)GlcNAc(b1-4)Man(a1-6)]Man(b1-4)GlcNAc(b1-4)GlcNAc
# How it was run: as §1
# [11] = target: Neu5Ac(a2-6)Gal(b1-4)GlcNAc(b1-2)[Neu5Ac(a2-6)Gal(b1-4)GlcNAc(b1-6)]Man(a1-6)[Neu5Ac(a2-6)Gal(b1-4)GlcNAc(b1-2)Man(a1-3)][GlcNAc(b1-4)]Man(b1-4)GlcNAc(b1-4)GlcNAc
# How it was run: as §1
# [12] = target: Neu5Ac(a2-6)Gal(b1-4)GlcNAc(b1-3)Gal(b1-3)GlcNAc
# How it was run: as §1
# [13] = target: Neu5Ac(a2-6)Gal(b1-4)GlcNAc(b1-3)Gal(b1-4)GlcNAc
# How it was run: as §1
# [14] = target: Neu5Ac(a2-6)Gal(b1-4)GlcNAc(b1-3)Gal(b1-4)GlcNAc(b1-2)Man(a1-3)[Neu5Ac(a2-6)Gal(b1-4)GlcNAc(b1-3)Gal(b1-4)GlcNAc(b1-2)Man(a1-6)]GalNAc
# How it was run: as §1
# [15] = target: Neu5Ac(a2-6)Gal(b1-4)GlcNAc(b1-3)Gal(b1-4)GlcNAc(b1-3)Gal(b1-4)GlcNAc
# How it was run: as §1
# [16] = target: Neu5Ac(a2-6)Gal(b1-4)GlcNAc(b1-3)Gal(b1-4)GlcNAc(b1-3)Gal(b1-4)GlcNAc(b1-2)Man(a1-3)[Neu5Ac(a2-6)Gal(b1-4)GlcNAc(b1-3)Gal(b1-4)GlcNAc(b1-3)Gal(b1-4)GlcNAc(b1-2)Man(a1-6)]GalNAc
# How it was run: as §1
# [17] = target: Neu5Ac(a2-6)Gal(b1-4)GlcNAc(b1-3)Gal(b1-4)GlcNAc(b1-3)GalNAc
# How it was run: as §1
# [18] = target: Neu5Ac(a2-6)Gal(b1-4)GlcNAc(b1-3)Gal(b1-4)GlcNAc(b1-3)[Neu5Ac(a2-6)Gal(b1-4)GlcNAc(b1-3)Gal(b1-4)GlcNAc(b1-6)]GalNAc
# How it was run: as §1
# [19] = target: Neu5Ac(a2-6)Gal(b1-4)GlcNAc(b1-3)Gal(b1-4)GlcNAc(b1-6)[Gal(b1-3)]GalNAc
# How it was run: as §1
# [20] = target: Neu5Ac(a2-6)Gal(b1-4)GlcNAc(b1-3)Gal(b1-4)[Fuc(a1-3)]GlcNAc(b1-3)Gal(b1-4)[Fuc(a1-3)]GlcNAc
# How it was run: as §1
# [21] = target: Neu5Ac(a2-6)Gal(b1-4)GlcNAc(b1-3)GalNAc
# How it was run: as §1
# [22] = target: Neu5Ac(a2-6)Gal(b1-4)GlcNAc(b1-3)[Neu5Ac(a2-6)Gal(b1-4)GlcNAc(b1-6)]GalNAc
# How it was run: as §1
# [23] = target: Neu5Ac(a2-6)Gal(b1-4)GlcNAc(b1-6)GalNAc
# How it was run: as §1
# [24] = target: Neu5Ac(a2-6)Gal(b1-4)GlcNAc(b1-6)[Gal(b1-3)GlcNAc(b1-3)]Gal(b1-4)Glc
# How it was run: as §1
# [25] = target: Neu5Ac(a2-6)Gal(b1-4)GlcNAc(b1-6)[Gal(b1-3)]GalNAc
# How it was run: as §1
# [26] = target: Neu5Ac(a2-6)Gal(b1-4)GlcNAc6S
# How it was run: as §1
# Neu5Ac(a2-6)GalNAc = target: Neu5Ac(a2-6)GalNAc
# How it was run: as §1
# [27] = target: Neu5Ac(a2-6)GalNAc(b1-4)GlcNAc
# How it was run: as §1
# [28] = target: Neu5Ac(a2-6)GalNAc(b1-4)GlcNAc6S
# How it was run: as §1
# [29] = target: Neu5Ac(a2-6)GlcNAc(b1-4)GlcNAc
# How it was run: as §1
# [30] = target: Neu5Ac(a2-6)GlcNAc(b1-4)GlcNAc(b1-4)GlcNAc
# How it was run: as §1
binder,measurement,setting,value
B1,glycan array binding signal (z-score),[1],-0.735
same,glycan array binding signal (z-score),[2],0.435
same,glycan array binding signal (z-score),[3],-0.169
same,glycan array binding signal (z-score),[4],0.79
same,glycan array binding signal (z-score),[5],-0.387
same,glycan array binding signal (z-score),[6],-0.797
same,glycan array binding signal (z-score),[7],0.936
same,glycan array binding signal (z-score),[8],0.554
same,glycan array binding signal (z-score),[9],-0.474
same,glycan array binding signal (z-score),[10],-0.912
same,glycan array binding signal (z-score),[11],-1.23
same,glycan array binding signal (z-score),[12],-1.15
same,glycan array binding signal (z-score),[13],-0.861
same,glycan array binding signal (z-score),[14],1.07
same,glycan array binding signal (z-score),[15],0.003
same,glycan array binding signal (z-score),[16],0.367
same,glycan array binding signal (z-score),[17],-0.989
same,glycan array binding signal (z-score),[18],0.361
same,glycan array binding signal (z-score),[19],0.468
same,glycan array binding signal (z-score),[20],0.494
same,glycan array binding signal (z-score),[21],-0.794
same,glycan array binding signal (z-score),[22],0.832
same,glycan array binding signal (z-score),[23],-0.352
same,glycan array binding signal (z-score),[24],-0.554
same,glycan array binding signal (z-score),[25],0.503
same,glycan array binding signal (z-score),[26],0.449
same,glycan array binding signal (z-score),Neu5Ac(a2-6)GalNAc,-0.566
same,glycan array binding signal (z-score),[27],0.461
same,glycan array binding signal (z-score),[28],-0.756
same,glycan array binding signal (z-score),[29],2.98
same,glycan array binding signal (z-score),[30],0.508

# Quoted from the results shown (two entries):
binder,measurement,setting,value
B1,glycan array binding signal (z-score),[29],2.98
same,glycan array binding signal (z-score),[30],0.508
